This note sets out measurements from paper PMC7265490.

The chains behind the UniProt entries cited, without tags or fusion partners. Where a name states a change or a piece, a line headed by the entry shows the natural chain unless it says otherwise.
UniProt Q9UKV8: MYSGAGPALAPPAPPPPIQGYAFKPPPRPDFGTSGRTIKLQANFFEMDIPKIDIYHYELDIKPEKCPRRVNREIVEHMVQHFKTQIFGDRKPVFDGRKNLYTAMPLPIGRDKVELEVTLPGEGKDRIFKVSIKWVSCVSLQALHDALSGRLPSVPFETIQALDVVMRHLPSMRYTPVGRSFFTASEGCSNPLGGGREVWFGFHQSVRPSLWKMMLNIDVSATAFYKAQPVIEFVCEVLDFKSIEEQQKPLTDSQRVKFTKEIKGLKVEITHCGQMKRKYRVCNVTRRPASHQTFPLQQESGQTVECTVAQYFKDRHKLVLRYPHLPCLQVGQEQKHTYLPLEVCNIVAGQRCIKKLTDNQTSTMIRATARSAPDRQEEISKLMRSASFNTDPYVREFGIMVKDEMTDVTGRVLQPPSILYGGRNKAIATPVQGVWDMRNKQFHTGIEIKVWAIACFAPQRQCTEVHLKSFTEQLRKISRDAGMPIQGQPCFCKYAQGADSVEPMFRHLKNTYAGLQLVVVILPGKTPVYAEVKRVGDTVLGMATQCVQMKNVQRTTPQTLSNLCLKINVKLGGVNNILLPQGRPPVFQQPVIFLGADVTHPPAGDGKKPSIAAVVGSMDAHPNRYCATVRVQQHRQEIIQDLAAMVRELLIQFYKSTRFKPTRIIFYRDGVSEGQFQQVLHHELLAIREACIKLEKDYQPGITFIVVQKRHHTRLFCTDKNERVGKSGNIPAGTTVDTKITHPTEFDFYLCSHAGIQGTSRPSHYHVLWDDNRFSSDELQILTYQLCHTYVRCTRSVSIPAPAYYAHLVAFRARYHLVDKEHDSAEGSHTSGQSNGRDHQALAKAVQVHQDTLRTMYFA

These are yes or no findings as the source states them, for the method shown. Binding seen in cells or lysates may run through a third protein. A result given as binding can be weak or reduced; the word gives no strength.

The assay deals with FLAG-tagged AGO2-ΔPAZ (AGO2 with a complete PAZ domain deletion) (UniProt Q9UKV8). Put plainly: co-IP; FLAG-tagged AGO2 constructs or GFP transfected into HEK293T; lysis in modRIPA buffer 48 h after transfection; anti-FLAG M2 magnetic beads, 4 °C overnight; washed five times with TBS; beads with or without RNase A/T1 (20 min, room temperature); Western blot for TUT4, TUT7 and AGO2.

B1: endogenous TUT7 (ZCCHC6/TENT3B/PAPD6) (enzyme, UniProt Q5VYS8 1-1495)
chain: MGDTAKPYFVKRTKDRGTMDDDDFRRGHPQQDYLIIDDHAKGHGSKMEKGLQKKKITPGNYGNTPRKGPCAVSSNPYAFKNPIYSQPAWMNDSHKDQSKRWLSDEHTGNSDNWREFKPGPRIPVINRQRKDSFQENEDGYRWQDTRGCRTVRRLFHKDLTSLETTSEMEAGSPENKKQRSRPRKPRKTRNEENEQDGDLEGPVIDESVLSTKELLGLQQAEERLKRDCIDRLKRRPRNYPTAKYTCRLCDVLIESIAFAHKHIKEKRHKKNIKEKQEEELLTTLPPPTPSQINAVGIAIDKVVQEFGLHNENLEQRLEIKRIMENVFQHKLPDCSLRLYGSSCSRLGFKNSDVNIDIQFPAIMSQPDVLLLVQECLKNSDSFIDVDADFHARVPVVVCREKQSGLLCKVSAGNENACLTTKHLTALGKLEPKLVPLVIAFRYWAKLCSIDRPEEGGLPPYVFALMAIFFLQQRKEPLLPVYLGSWIEGFSLSKLGNFNLQDIEKDVVIWEHTDSAAGDTGITKEEAPRETPIKRGQVSLILDVKHQPSVPVGQLWVELLRFYALEFNLADLVISIRVKELVSRELKDWPKKRIAIEDPYSVKRNVARTLNSQPVFEYILHCLRTTYKYFALPHKITKSSLLKPLNAITCISEHSKEVINHHPDVQTKDDKLKNSVLAQGPGATSSAANTCKVQPLTLKETAESFGSPPKEEMGNEHISVHPENSDCIQADVNSDDYKGDKVYHPETGRKNEKEKVGRKGKHLLTVDQKRGEHVVCGSTRNNESESTLDLEGFQNPTAKECEGLATLDNKADLDGESTEGTEELEDSLNHFTHSVQGQTSEMIPSDEEEEDDEEEEEEEEPRLTINQREDEDGMANEDELDNTYTGSGDEDALSEEDDELGEAAKYEDVKECGKHVERALLVELNKISLKEENVCEEKNSPVDQSDFFYEFSKLIFTKGKSPTVVCSLCKREGHLKKDCPEDFKRIQLEPLPPLTPKFLNILDQVCIQCYKDFSPTIIEDQAREHIRQNLESFIRQDFPGTKLSLFGSSKNGFGFKQSDLDVCMTINGLETAEGLDCVRTIEELARVLRKHSGLRNILPITTAKVPIVKFFHLRSGLEVDISLYNTLALHNTRLLSAYSAIDPRVKYLCYTMKVFTKMCDIGDASRGSLSSYAYTLMVLYFLQQRNPPVIPVLQEIYKGEKKPEIFVDGWNIYFFDQIDELPTYWSECGKNTESVGQLWLGLLRFYTEEFDFKEHVISIRRKSLLTTFKKQWTSKYIVIEDPFDLNHNLGAGLSRKMTNFIMKAFINGRRVFGIPVKGFPKDYPSKMEYFFDPDVLTEGELAPNDRCCRICGKIGHFMKDCPMRRKVRRRRDQEDALNQRYPENKEKRSKEDKEIHNKYTEREVSTKEDKPIQCTPQKAKPMRAAADLGREKILRPPVEKWKRQDDKDLREKRCFICGREGHIKKECPQFKGSSGSLSSKYMTQGKASAKRTQQES
For B1, the binding result was “binds”.
